Assay results as given in PubChem BioAssay AID493014 (National Center for Advancing Translational Sciences (NCATS), 2011).
This is one part of the list. Shown are side measurements of this screen, not its main read-out; they come without a call. The list favours compounds with an active or inconclusive main result. The note in brackets gives the kind of curve behind each potency; many fits are weak.

Assay: qHTS Assay to Find Inhibitors of Chronic Active B-Cell Receptor Signaling
Details: ABC-DLBCL IkBa-CBG/CBR reporter, luminescence ratio (green luciferase fused to IkBa over red control in TMD8 lymphoma cells), 4 h
How it was run: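 Compounds up to 46 uM were incubated four hours with TMD8 cells whose green CBG68 luciferase is fused to IkappaBalpha; red CBR luminescence normalised the signal, and concentration-effect curves were fitted to fusion, red and ratio data.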

[1] = measured here: CBR red luminescence, cell number
[2] = measured here: IkBa-CBG green luminescence

O=S(=O)(Nc1nc2ccccc2nc1NCCO)c1cccc(Cl)c1
AC50 [1]: 0.164 µM [falling, full curve, poor fit]

COc1cc(/C=C(\C#N)C(=O)N2CCCCC2)ccc1O
AC50 [1]: 11.2 µM [rising, partial curve, poor fit]

O=C(OCCCc1cc2ccccc2c(=O)o1)c1ccccc1C(F)(F)F
AC50 [1]: 7.31 µM [rising, partial curve, poor fit]

CC1=NN(c2ccc(Cl)c(C(=O)O)c2)C(=O)C1
AC50 [1]: 20.6 µM [falling, single point]

CCOC(=O)c1sc(-c2ccccc2)cc1NC(=O)Nc1ccccc1
AC50 [1]: 8.2 µM [falling, partial curve]

CC1Oc2ccccc2C=C1/C=C1/SC(N2CCOCC2)=NC1=O (stereo unspecified)
AC50 [1]: 11.2 µM [falling, partial curve]

Cc1ccc(/C=N/NC(=O)c2ccc(Cn3cc([N+](=O)[O-])cn3)o2)cc1
AC50 [1]: 2.31 µM [falling, full curve, poor fit]

Cn1cccc1C(=O)NCC(c1ccc(F)cc1)N1CCOCC1 (stereo unspecified)
AC50 [1]: 0.562 µM [rising, partial curve, poor fit]

CCCN(CC(=O)Nc1ccccc1C)C(=O)c1cccc(S(=O)(=O)N2CCc3ccccc3C2)c1
AC50 [1]: 10 µM [falling, partial curve, poor fit]

O=C(COC(=O)c1cccc(NC(=O)c2ccco2)c1)c1ccc(Br)cc1
AC50 [1]: 11.2 µM [falling, partial curve]

CNC(=O)NCCN1CCCC1=O
AC50 [1]: 29.1 µM [rising, single point]

COc1ccccc1C(=O)Nc1ccc(C)c(S(=O)(=O)N2CCCCC2)c1
AC50 [1]: 20.6 µM [falling, single point]

Cc1cccc(NC(=O)CN(C)C(=O)C2CC2)c1C
AC50 [1]: 3.26 µM [falling, single point]

FC(F)(F)c1nnc2ccc(-n3ccnc3)nn12
AC50 [1]: 23.1 µM [rising, single point]

O=C(COc1ccc2ccccc2c1)Nc1ccncc1
AC50 [1]: 0.501 µM [rising, full curve, poor fit]

CCCOc1ccc(Cc2c(O)nc(SC)[nH]c2=O)cc1C
AC50 [1]: 3.55 µM [falling, full curve]

CC(C)(C)NCC(O)COc1ccccc1C(C)(C)C (stereo unspecified)
AC50 [1]: 17.8 µM [falling, single point]

C[C@@]12C(=O)N(c3cccc(Br)c3)C(=O)N1[C@H](c1ccc(Cl)cc1)[C@@H]1C(=O)N(C3CCCCC3)C(=O)[C@@H]12
AC50 [1]: 4.47 µM [falling, full curve, poor fit]

CCC(=O)NC(c1ccccc1Cl)c1c(O)ccc2ccccc12 (stereo unspecified)
AC50 [1]: 29.1 µM [falling, single point]

CCOC(=O)c1ccc(-c2ccc3oc(-c4ccsc4)cc(=O)c3c2)cc1F
AC50 [1]: 0.103 µM [falling, full curve, poor fit]

C=CCn1c(SCC(=O)Nc2cccc(S(N)(=O)=O)c2)nc2sc(C)c(C)c2c1=O
AC50 [1]: 0.82 µM [rising, full curve, poor fit] | AC50 [2]: 4.61 µM [falling, full curve]

COc1ccc(C(=O)NCCc2cn3ccccc3n2)cc1
AC50 [1]: 2.82 µM [rising, partial curve, poor fit]

O=C(OCc1c(-c2ccccc2)ncc2ccccc12)c1cccc(Br)c1
AC50 [1]: 9.2 µM [falling, partial curve]

Cc1cccc(C(=O)Nc2cccc(C(=O)N/N=C/c3ccccn3)c2)c1
AC50 [1]: 14.1 µM [falling, single point]

CC(=O)OC(COc1cccc(C)c1)Cn1cnc2ccccc21 (stereo unspecified)
AC50 [1]: 10 µM [falling, partial curve, poor fit]

N#C/C(=C\c1cn(Cc2ccccc2F)c2ccccc12)C(=O)NCc1ccco1
AC50 [1]: 4.61 µM [rising, single point]

CC1(C)CC(=O)C=C(NCCN2CCN(C(=O)Nc3ccc(Cl)cc3)CC2)C1
AC50 [1]: 7.94 µM [rising, partial curve]

CCC(C)NC(=O)c1c(N)n(/N=C/c2cccs2)c2nc3ccccc3nc12 (stereo unspecified)
AC50 [1]: 4.47 µM [falling, partial curve, poor fit]

Cc1ccccc1NC(=O)c1ccc(CSc2ncccn2)cc1
AC50 [1]: 0.316 µM [falling, full curve, poor fit]

O=[N+]([O-])c1c(NCCO)cc(N2CCC3(CC2)OCCO3)c2nonc12
AC50 [1]: 18.4 µM [rising, partial curve, poor fit]

NS(=O)(=O)c1ccc(-c2ccc(/C=N/NC(=O)c3ccccc3O)o2)cc1
AC50 [1]: 7.08 µM [falling, partial curve]

COc1ccccc1-c1ccc(Nc2cccc(C(F)(F)F)c2)nn1
AC50 [1]: 2.31 µM [rising, full curve]

O=C(c1cc(-c2ccc(O)cc2)on1)N1CCCC1
AC50 [1]: 12.6 µM [falling, partial curve, poor fit]

O=C(OCc1nc2ccc(Cl)cc2n1CCO)c1ccc2c(c1)OCO2
AC50 [1]: 22.4 µM [falling, partial curve, poor fit] | AC50 [2]: 28.2 µM [rising, partial curve, poor fit]

CCOC(=O)c1ccc(NC(=O)c2ccccc2[N+](=O)[O-])cc1
AC50 [1]: 10.3 µM [falling, partial curve, poor fit]

CCOC(=O)N1CCN(C(=O)c2c(-c3ccccc3)noc2C)CC1
AC50 [1]: 7.31 µM [rising, single point]

CN(C)CCC(=O)c1cccc(Br)c1
AC50 [1]: 35.5 µM [falling, single point]

Cc1noc(C)c1C(=O)Nc1nnc(-c2ccccc2)s1
AC50 [1]: 8.91 µM [falling, partial curve]

COCC(=O)Nc1cc(C(=O)Nc2ccccc2)ccc1Cl
AC50 [1]: 22.4 µM [falling, partial curve, poor fit]

COc1ccc(C(=O)Nc2ccc(NC(=O)c3ccccn3)cn2)cc1
AC50 [1]: 3.98 µM [rising, full curve]

COC(=O)COc1cccc2c(=O)n(CC(=O)NCc3ccc(F)cc3)ccc12
AC50 [2]: 6.31 µM [falling, partial curve, poor fit]

O=C(Nc1nnc(S(=O)(=O)N2CCOCC2)s1)c1ccccc1F
AC50 [1]: 5.62 µM [rising, partial curve, poor fit]

Nc1ccc(-c2nc3c(Cl)c(N)ccc3[nH]2)cc1
AC50 [1]: 10 µM [falling, partial curve]

CCCn1c(CNC(=O)c2cccs2)nc2ccccc21
AC50 [1]: 20.6 µM [falling, partial curve, poor fit]

COc1ccc(NC(=O)C/C(C)=N/NC(=O)C(=O)NC2CCCCC2)c(OC)c1
AC50 [1]: 0.794 µM [falling, full curve]

NC(=O)C1CCCN(C(=O)c2cccc(NC(=O)c3cccs3)c2)C1 (stereo unspecified)
AC50 [1]: 16.4 µM [falling, partial curve, poor fit]

Cc1ncc([N+](=O)[O-])n1CC(=O)N/N=C/c1ccccc1F
AC50 [1]: 2.51 µM [rising, full curve, poor fit]

C=CC[C@]12CCc3ccccc3C1N(c1ccc(C(=O)OCC)cc1)C2=O (stereo partly specified)
AC50 [1]: 1.84 µM [falling, partial curve, poor fit]

O=C(Nc1cccc(/C=C/c2ccccn2)c1)c1cc(Cl)ccn1
AC50 [1]: 3.55 µM [falling, partial curve]

O=C(NCCN1CCOCC1)c1cc(-c2ccc(Cl)c(Cl)c2)on1
AC50 [1]: 35.5 µM [rising, single point]

CCCn1c(O)c(N=NC(=O)CNC(=O)c2cccnc2)c2ccccc21
AC50 [1]: 5.62 µM [rising, single point]

O=C(NNC(=O)c1ccc(Cl)c([N+](=O)[O-])c1)c1ccncc1
AC50 [1]: 25.1 µM [falling, single point]

Cc1ccccc1-c1nc2cc(Cl)ccc2o1
AC50 [1]: 7.94 µM [rising, partial curve]

COc1ccc(-c2nn(-c3ccccc3)cc2/C=N/NC(=S)NC(C)C)cc1OC
AC50 [1]: 4.11 µM [rising, partial curve]

OCc1cc(C(O)CNCCCCCCOCCCCc2ccccc2)ccc1O (stereo unspecified)
AC50 [2]: 0.251 µM [falling, full curve, poor fit]

Cc1ccc(C(=O)COC(=O)COc2ccccc2[N+](=O)[O-])s1
AC50 [1]: 3.66 µM [rising, full curve, poor fit]

CCC1CCCCN1S(=O)(=O)c1ccc(S(=O)(=O)N2CCN(S(=O)(=O)CC)CC2)cc1 (stereo unspecified)
AC50 [1]: 25.9 µM [rising, single point]

COc1cccc(CC(=O)Nc2ccc(-c3nc4ccccc4s3)cc2)c1
AC50 [1]: 8.91 µM [rising, partial curve, poor fit]

COCCn1c(=O)[nH]c2cc(C(=O)Nc3cccc(F)c3)ccc2c1=O
AC50 [1]: 5.01 µM [falling, full curve]

Cc1nc(N)nc(N)c1/C=C/C(C)(C)c1ccc(Cl)cc1
AC50 [1]: 11.2 µM [falling, partial curve, poor fit]

O=C(COc1ccc(Br)cc1)NCc1ccccn1
AC50 [1]: 16.4 µM [rising, single point]

CCCN(C(=O)c1nc2nc(C)cc(C)n2n1)c1c(N)n(Cc2ccccc2)c(=O)[nH]c1=O
AC50 [1]: 25.9 µM [rising, single point]

Nn1c(COc2ccc(Cl)cc2)nc2ccccc2c1=O
AC50 [1]: 1.16 µM [rising, full curve, poor fit]

Fc1ccc(CSc2ncnc3scc(-c4ccccc4)c23)cc1
AC50 [1]: 8.2 µM [rising, partial curve, poor fit]
